# From US20140086924A1
# No constants are given. Whether binding was seen depends on the method and setting. Some entries that bind do so weakly or less than the wild type.
# Assays:
# [1] = molecular target: full length Hsp90alpha (human) (UniProt P07900); test: ELISA, peptide immobilized, recombinant Hsp90 added, detection with anti-Hsp90 (n=2); no blank bar on the sheet
# [2] = molecular target: full length Hsp90alpha (human) (UniProt P07900); test: surface plasmon resonance
Binder,binding [1],binding [2]
KHSSGCGFL [A85G],binds,–
IDDHKKHSSGCAFL [Survivin Ile74-Leu87 peptide],–,binds
